{"source": "patent US20250270256A1", "about": "(CELLICON LAB INC., priority 2021, published 2025)", "assay": "general procedure: Fmoc solid-phase peptide synthesis; 2-chlorotrityl chloride resin; HBTU, HOBt, DIPEA", "conditions": "whole synthesis, scale 0.10 mmol, trifluoroacetate salt", "note": "Some peptides are written in HELM: one residue between dots, names in brackets for other building blocks, links after the first $."}
{"substance": "PEPTIDE1{K.K.L.F.K.K.I.L.K.Y.L.K}$$$$V2.0", "values": [{"measurement": "isolated mass", "result": 155, "unit": "mg"}]}
